Test system: dorsal root ganglion
Experiment: Epidural infusion of radiolabeled glutamate, radiolabeling of dorsal root ganglion
Assay type: in vivo, rat

N[C@@H](CCC(=O)O)C(=O)O [glutamate]
side of significant radiolabeling of dorsal root ganglion (infusions below 0.22 mmol/L, epidural, 72 hours): significant radiolabeling occurred only on the side ipsilateral to the infusion catheter tip
lowest infused concentration giving significant radiolabeling of the dorsal root ganglion (male Sprague-Dawley rats, epidural infusion over 72 hours): 0.003 mmol/L
